Data on four molecules can be found in doi:10.1101/2023.01.13.523841.

Amino acid sequences for entries named in this document (tags omitted).
UniProt O22467: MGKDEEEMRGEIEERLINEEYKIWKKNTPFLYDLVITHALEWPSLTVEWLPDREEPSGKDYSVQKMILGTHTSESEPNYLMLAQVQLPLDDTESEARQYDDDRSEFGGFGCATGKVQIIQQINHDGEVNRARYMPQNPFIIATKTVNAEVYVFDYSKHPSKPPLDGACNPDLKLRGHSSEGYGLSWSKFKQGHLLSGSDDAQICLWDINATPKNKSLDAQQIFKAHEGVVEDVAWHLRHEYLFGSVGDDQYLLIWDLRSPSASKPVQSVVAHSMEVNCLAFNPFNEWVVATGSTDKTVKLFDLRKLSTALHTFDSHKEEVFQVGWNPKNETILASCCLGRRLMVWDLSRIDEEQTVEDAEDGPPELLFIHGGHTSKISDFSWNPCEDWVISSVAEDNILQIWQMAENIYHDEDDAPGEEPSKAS

Read-outs that look alike come from different tables or passages of the source. Results are given in words; binding and its absence hold for the method and conditions named. For some of these results: In cells and extracts the contact can be indirect. Some binding calls cover weakened binding; strength is not graded here. Where a sequence is shown, tags or fusion partners need not be part of it.

Assay [1] concerns the target T1, ALFIN LIKE 3 (AL3), yeast two-hybrid fusion in pBridge or pGADT7 (Arabidopsis thaliana) (UniProt Q9M2B4).
T1 sequence: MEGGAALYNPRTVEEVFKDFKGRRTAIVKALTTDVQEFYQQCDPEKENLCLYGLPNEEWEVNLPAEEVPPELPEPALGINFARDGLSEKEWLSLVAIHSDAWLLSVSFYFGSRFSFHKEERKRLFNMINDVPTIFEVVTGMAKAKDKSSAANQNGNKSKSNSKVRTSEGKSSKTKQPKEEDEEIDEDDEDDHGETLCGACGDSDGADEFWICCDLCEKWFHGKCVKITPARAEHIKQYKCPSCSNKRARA
The experiment in a line: two-hybrid.

The target in assay [2] is T1, ALFIN LIKE 3 (AL3), yeast two-hybrid fusion in pBridge or pGADT7 (Arabidopsis thaliana). Description: two-hybrid. This is another data set of the same source.
The target in assay [3] is ALFIN LIKE 3 (AL3), BiFC fusion in pUC-SPYNE (nYFP-X) (Arabidopsis thaliana) (UniProt Q9M2B4). The experiment in a line: split reporter.

Regarding “MSI1, yeast two-hybrid fusion (from UniProt O22467 1-424)”, in assay [1], the binding entry is on record as “no binding”.

B1: CLF, yeast two-hybrid fusion (protein, UniProt P93831 1-902)
chain: MASEASPSSSATRSEPPKDSPAEERGPASKEVSEVIESLKKKLAADRCISIKKRIDENKKNLFAITQSFMRSSMERGGSCKDGSDLLVKRQRDSPGMKSGIDESNNNRYVEDGPASSGMVQGSSVPVKISLRPIKMPDIKRLSPYTTWVFLDRNQRMTEDQSVVGRRRIYYDQTGGEALICSDSEEEAIDDEEEKRDFLEPEDYIIRMTLEQLGLSDSVLAELASFLSRSTSEIKARHGVLMKEKEVSESGDNQAESSLLNKDMEGALDSFDNLFCRRCLVFDCRLHGCSQDLIFPAEKPAPWCPPVDENLTCGANCYKTLLKSGRFPGYGTIEGKTGTSSDGAGTKTTPTKFSSKLNGRKPKTFPSESASSNEKCALETSDSENGLQQDTNSDKVSSSPKVKGSGRRVGRKRNKNRVAERVPRKTQKRQKKTEASDSDSIASGSCSPSDAKHKDNEDATSSSQKHVKSGNSGKSRKNGTPAEVSNNSVKDDVPVCQSNEVASELDAPGSDESLRKEEFMGETVSRGRLATNKLWRPLEKSLFDKGVEIFGMNSCLIARNLLSGFKSCWEVFQYMTCSENKASFFGGDGLNPDGSSKFDINGNMVNNQVRRRSRFLRRRGKVRRLKYTWKSAAYHSIRKRITEKKDQPCRQFNPCNCKIACGKECPCLLNGTCCEKYCGCPKSCKNRFRGCHCAKSQCRSRQCPCFAADRECDPDVCRNCWVIGGDGSLGVPSQRGDNYECRNMKLLLKQQQRVLLGISDVSGWGAFLKNSVSKHEYLGEYTGELISHKEADKRGKIYDRENCSFLFNLNDQFVLDAYRKGDKLKFANHSPEPNCYAKVIMVAGDHRVGIFAKERILAGEELFYDYRYEPDRAPAWAKKPEAPGSKKDENVTPSVGRPKKLA
Take B1: the binding entry in assay [2] is reported as “no binding”.

B2: LIKE HETEROCHROMATIN 1 (LHP1), yeast two-hybrid fusion (protein, UniProt Q946J8 1-445)
chain: MKGASGAVKKKPQVLNEAGEAETAVETVGESRKISGDGGFGSDDGGGGGGGGSGESILREIGDDRPTEDGDEEEEEDEDEDDGGDEEDEEGEGEGGQEERPKLDEGFYEIEAIRRKRVRKGKVQYLIKWRGWPETANTWEPLENLQSIADVIDAFEGSLKPGKPGRKRKRKYAGPHSQMKKKQRLTSTSHDATEKSDSSTSLNNSSLPDIPDPLDLSGSSLLNRDVEAKNAYVSNQVEANSGSVGMARQVRLIDNEKEYDPTLNELRGPVNNSNGAGCSQGGGIGSEGDNVRPNGLLKVYPKELDKNSRFIGAKRRKSGSVKRFKQDGSTSNNHTAPTDQNLTPDLTTLDSFGRIARMGNEYPGVMENCNLSQKTKIEELDITKILKPMSFTASVSDNVQEVLVTFLALRSDGKEALVDNRFLKAHNPHLLIEFYEQHLKYNRTP
In the case of B2, in assay [2], the binding result is “binds”.

B3: LIKE HETEROCHROMATIN 1 (LHP1), BiFC fusion in pUC-SPYCE (cYFP-X) (protein, UniProt Q946J8 1-445)
chain: MKGASGAVKKKPQVLNEAGEAETAVETVGESRKISGDGGFGSDDGGGGGGGGSGESILREIGDDRPTEDGDEEEEEDEDEDDGGDEEDEEGEGEGGQEERPKLDEGFYEIEAIRRKRVRKGKVQYLIKWRGWPETANTWEPLENLQSIADVIDAFEGSLKPGKPGRKRKRKYAGPHSQMKKKQRLTSTSHDATEKSDSSTSLNNSSLPDIPDPLDLSGSSLLNRDVEAKNAYVSNQVEANSGSVGMARQVRLIDNEKEYDPTLNELRGPVNNSNGAGCSQGGGIGSEGDNVRPNGLLKVYPKELDKNSRFIGAKRRKSGSVKRFKQDGSTSNNHTAPTDQNLTPDLTTLDSFGRIARMGNEYPGVMENCNLSQKTKIEELDITKILKPMSFTASVSDNVQEVLVTFLALRSDGKEALVDNRFLKAHNPHLLIEFYEQHLKYNRTP
On to B3, for which the binding result in assay [3] is on record as “binds”.
